The nature of the data set: general procedure: Fmoc solid-phase peptide synthesis in flow; PEG resin; Rink amide, HMPB, photolinker or MeDbz linker. The following applies: whole synthesis, isolated yield after HPLC.

B1: MYC[1-84]-MeNbz-Arg6 (peptide, UniProt P01106 1-84, looked up, fragment)
chain: MDFFRVVENQQPPATMPLNVSFTNRNYDLDYDSVQPYFYCDEEENFYQQQQQSELQPPAPSEDIWKKFELLPTPPLSPSRRSGL
modifications: SynTag, thioester
As to B1, the isolated yield was determined as 0.5%.
